Test results published in PubChem BioAssay AID624291 (National Center for Advancing Translational Sciences (NCATS), 2012).
In all, about 350,000 compounds went through this assay and about 220 (0.063%) were called active. Inconclusive results, whose numbers are uncertain, are shown with a selection of clear calls. The call rests on the fitted dose curve; in most records, active means well fitted activation curve with a large enough effect; inconclusive means small, poorly fitted or top-dose-only effect; inactive means no such curve, though single readings can be large or run the other way. Potencies beside an inconclusive call are fits to weak or partial responses and may not hold up.
Potency means the concentration at half of the fitted maximal effect.

Test: qHTS for Activators of Integrin-Mediated Alleviation for Muscular Dystrophy; further: nearly all actives have a fitted effect of over 60% in size;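 on activation: 100% = response of the positive control SU9516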
Conditions: alpha7betagal myoblasts, beta-gal FDG fluorescence, 48 h; activation: at 38.3 µM (top of the series)
Procedure, shortened: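 Alpha7betagal+/- myoblasts (passage 13) were plated 16-24 hr, then exposed to compounds (1:260 dilution of DMSO stock) for 48 hours at 37C. After MPER lysis, β-galactosidase reporter activity was read as FDG fluorescence (ex 480/em 540) after 30 minutes.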
For `COc1cc(OC)c(CN2CCC(Cc3ccccc3)CC2)cc1Br`, the “activation” value was inactive: -28.3%. In the case of `Cc1nnnn1/C(=C\c1ccccc1)C(=O)OCC(=O)NC1CCCCC1`, the “activation” value is reported as inactive: 10.5%. With `CC(C)[C@H](N)C(=O)N1CCC(C(=O)N[C@@H](Cc2ccccc2)C(=O)NCc2ccc(F)cc2)CC1` the Potency was inconclusive: 28.2 µM [activator, single point]. With `Cc1cccc(C)c1NC(=O)NC1(C(=O)N2CCCC2)CCCCC1` the Potency was inconclusive: 3.55 µM [activator, partial curve, poor fit]. For `CC12CCC(=O)C=C1C(O)CC1C2CCC2(C)C1CCC2(O)C(=O)CO` (stereo not drawn), the Potency was inconclusive: 31.6 µM [activator, partial curve, poor fit]. With `c1cc(-c2nnn(CCOCCn3nnc(-c4ccncc4)n3)n2)ccn1` the Potency was inconclusive: 7.94 µM [activator, partial curve, poor fit]. For `CCC(=O)Nc1ccc(C(=O)NNC(=O)c2cccc(C)c2)cc1`, the Potency was inconclusive: 5.01 µM [activator, single point]. In the case of `COCCNC(=O)[C@H](CSCc1ccccc1)N1Cc2ccccc2C1=O`, the Potency is reported as inconclusive: 2.24 µM [activator, partial curve, poor fit]. For `COC(=O)c1ccc(C(=O)OC)c(NC(=O)CSc2cccc[n+]2[O-])c1`, the Potency was inconclusive: 28.2 µM [activator, single point]. With `NS(=O)(=O)c1ccc(NC(=O)/C=C/c2cccc(Cl)c2)cc1` the Potency was inconclusive: 3.55 µM [activator, single point]. In the case of `Cn1nc(C(F)(F)F)c(C#N)c1N1CCN(c2ccccc2F)CC1`, the Potency is reported as inconclusive: 11.2 µM [activator, partial curve, poor fit]. In the case of `COc1ccc(/C=C/C(=O)O)cc1S(=O)(=O)NCc1ccccc1`, the Potency is reported as inconclusive: 5.01 µM [activator, single point]. In the case of `C=CCn1c(N)c(C(=O)N2CCN(C)CC2)sc1=S`, the “activation” value is reported as inactive: 10.6%. In the case of `O=C(COC(=O)c1ccccc1O)Nc1cccc2ccccc12`, the Potency is reported as inconclusive: 14.1 µM [activator, single point]. With `Cc1cc(-c2ccc(C(C)C)c(S(=O)(=O)Nc3cc(C)on3)c2)on1` the Potency was inconclusive: 3.16 µM [activator, single point]. In the case of `CCOC(=O)/C=C1/SCC(=O)N1Cc1ccc(Br)cc1`, the “activation” value is reported as inactive: 6.9%. In the case of `O=[N+]([O-])C(/C=C(\Cl)[N+](=O)[O-])=C(N1CCCCC1)N1CCCCC1`, the “activation” value is reported as inactive: -36.7%. For `N#Cc1c(-c2ccco2)ccn(Cc2ccc(F)cc2)c1=O`, the Potency was inconclusive: 2.51 µM [activator, full curve, poor fit]. In the case of `Cc1cc(Cl)c2oc(C(=O)N3CCN(C(=O)c4ccco4)CC3)c(C)c2c1`, the Potency is reported as inconclusive: 5.62 µM [activator, full curve, poor fit]. For `O=C(NC(=O)c1ccccc1)Nc1ccc(-c2cnco2)cc1`, the Potency was inconclusive: 2.24 µM [activator, partial curve, poor fit]. With `COc1ccccc1NC(CC(=O)c1ccccc1)C(=O)OCC(=O)c1ccc(C)cc1` (stereo not drawn) the “activation” value was inactive: -17.8%. With `CC(C)C(=O)Nc1nnc(S(=O)(=O)N2CCCc3ccccc32)s1` the “activation” value was inactive: 9.31%. For `CCCc1c(C)nc2c(Br)cccc2c1Cl`, the Potency was inconclusive: 8.91 µM [activator, partial curve, poor fit]. In the case of `COc1ccc(-c2nnc(-c3ccc(N)cc3)o2)cc1`, the “activation” value is reported as inactive: 8.46%. For `O=c1c(S(=O)(=O)c2ccc(Cl)cc2)cn(Cc2ccccc2F)c2ccc(F)cc12`, the Potency was inconclusive: 10 µM [activator, single point]. With `O=C(O)CC/C(=C\c1cc2c(cc1Br)OCO2)c1nc2ccccc2s1` the Potency was inconclusive: 28.2 µM [activator, single point]. For `O=C(CCN1C(=O)/C(=C/c2ccccc2)SC1=S)NNC(=O)c1ccncc1`, the Potency was inconclusive: 28.2 µM [activator, single point]. With `COc1ccc(N=Nc2cc(C)c(O)c(CN3CCCCC3)c2)cc1` the “activation” value was inactive: -5.66%. With `C[n+]1cnc(-c2ccccc2)cc1-c1ccccc1` the “activation” value was inactive: 6.5%. In the case of `COc1cccc2[nH]c(C(=O)NCC3CCCO3)cc12` (stereo not drawn), the Potency is reported as inconclusive: 5.01 µM [activator, single point]. For `CCN(CC)c1ccc(/C=N/NC(=O)c2ccc(Br)o2)cc1`, the “activation” value was inactive: 9.81%. For `CC(C(=O)OCC(=O)c1ccccc1)N1C(=O)C2C3CCC(C3)C2C1=O` (stereo not drawn), the Potency was inconclusive: 2.82 µM [activator, partial curve, poor fit]. In the case of `CCn1c(SCC(=O)Nc2ccccc2)nc2c1c(=O)n(C)c(=O)n2C`, the “activation” value is reported as inactive: 8.34%. For `Cc1cccc(N2CC(O)=C(c3nc4ccccc4n3C)C2=N)c1`, the “activation” value was inactive: 17.9%. For `Cc1cc(Cl)ccc1OCC(=O)Nc1ccccc1CO`, the Potency was inconclusive: 5.62 µM [activator, partial curve, poor fit]. In the case of `Cc1ccc2c(c1)N(CC(=O)N1CCCC1)C(=O)c1cccnc1O2`, the Potency is reported as inconclusive: 5.01 µM [activator, single point]. With `CCn1c(/C=C/N(C)c2ccccc2)[n+](CC)c2ccc(Cl)cc21` the activation was inconclusive: -26.5% [activator]. With `COc1ccc(C23CC4CC(CC(C(=O)O)(C4)C2)C3)c(F)c1` the Potency was inconclusive: 1.26 µM [activator, partial curve, poor fit]. In the case of `CS(=O)(=O)N1CCC(C(=O)Nc2cc(Cl)ccc2Cl)CC1`, the Potency is reported as inconclusive: 14.1 µM [activator, single point]. With `CC(C)(C)C(=O)Nc1ccc(S(=O)(=O)Nc2ccccn2)cc1` the Potency was inconclusive: 17.8 µM [activator, single point]. With `NC(=O)CSc1nnc(-c2ccccn2)n1Cc1ccco1` the “activation” value was inactive: 1.13%. For `CCc1ccc(-c2cc(C)no2)cc1S(=O)(=O)NCCc1ccc(S(N)(=O)=O)cc1`, the Potency was inconclusive: 3.55 µM [activator, single point]. In the case of `O=C(CSc1n[nH]c(-c2ccncc2)n1)Nc1ccc(Cl)cc1`, the Potency is reported as inconclusive: 3.98 µM [activator, single point]. In the case of `O=C(CCNC(=O)c1ccccc1Cl)NCC(c1ccc(F)cc1)N1CCOCC1` (stereo not drawn), the “activation” value is reported as inactive: 18.6%. With `O=C(Nc1ccc(CN2CCOCC2)cc1)c1ccc(-c2ccc(Br)cc2)o1` the Potency was inconclusive: 3.16 µM [activator, partial curve, poor fit]. For `CN(C1CCCCC1)S(=O)(=O)c1cc2c(cc1Cl)NC(=O)CO2`, the Potency was inconclusive: 28.2 µM [activator, single point]. In the case of `Cn1c(CNC(=O)CNS(=O)(=O)c2ccc(F)cc2F)cc(=O)n(C)c1=O`, the Potency is reported as inconclusive: 5.01 µM [activator, single point]. In the case of `Cc1ccc(NC(=S)N(CCCN2CCC(C)CC2)Cc2ccco2)cc1C`, the Potency is reported as inconclusive: 3.16 µM [activator, single point]. In the case of `COc1ccc(-n2ncc3c(N4CCCCC4)ncnc32)cc1`, the “activation” value is reported as inactive: 3.78%. For `CCOc1cc(/C=N/NC(=O)OC)ccc1OCCSc1ccc(Cl)cc1`, the Potency was inconclusive: 2.82 µM [activator, full curve, poor fit]. For `c1ccc(-c2ccc(CN3CCSCC3)cc2)cc1`, the Potency was inconclusive: 14.1 µM [activator, single point]. For `COc1ccc(NC(=O)c2ccc(-c3ccc(C(C)=O)cc3)o2)cn1`, the activation was inconclusive: 27.7% [activator]. For `COc1ccc(C(=O)c2coc3ccc(OC(C)=O)cc23)cc1`, the Potency was inconclusive: 1.12 µM [activator, partial curve, poor fit]. In the case of `CCCCC1(C)OC(=O)C(=Cc2ccc(SC)cc2)C(=O)O1` (stereo not drawn), the Potency is reported as inconclusive: 22.4 µM [activator, single point]. With `C/C(=C/c1ccccc1)C(=O)N1CCC(C)CC1` the Potency was inconclusive: 8.91 µM [activator, partial curve, poor fit]. With `O=C(CSc1nc2ccccc2c(=O)n1CCCN1CCOCC1)N1CCN(c2ccccc2)CC1` the Potency was inconclusive: 28.2 µM [activator, single point]. With `C/C(=N/NC(=O)c1ccccn1)c1c[nH]c2ccccc12` the Potency was inconclusive: 3.55 µM [activator, single point]. For `CC1(C)CC(=O)c2cc(N=C/C(C(=O)c3ccccc3)=C(\O)c3ccccc3)c(=O)oc2C1`, the “activation” value was inactive: 0%. In the case of `O=C(Nc1sc2c(c1C(=O)O)CCCCC2)c1ccccc1F`, the Potency is reported as inconclusive: 22.4 µM [activator, single point]. With `CCCN1CCN(CCCNC(=O)CN2C(=O)COc3ccccc32)CC1` the Potency was inconclusive: 28.2 µM [activator, single point]. With `O=c1[nH]c(=S)[nH]nc1Cc1ccc(Cl)c(Cl)c1` the Potency was inconclusive: 25.1 µM [activator, single point]. For `O=C1N=C(N2CCOCC2)S/C1=C\c1ccncc1`, the “activation” value was inactive: -44%. For `O=[N+]([O-])c1cccc(-c2n[nH]c(=S)n2-c2ccc(Br)cc2)c1`, the Potency was inconclusive: 28.2 µM [activator, single point]. For `Cc1cccc(NC(=S)NNC(=O)c2ccc3c(c2)OCO3)c1`, the “activation” value was inactive: 20.1%. For `CC1=NN(c2ccccc2)C(=O)/C1=C\c1cn(-c2ccccc2)nc1C`, the Potency was inconclusive: 14.1 µM [activator, single point]. In the case of `CCn1c2ccccc2c2cc(NC(=O)c3ccc([N+](=O)[O-])cc3)ccc21`, the Potency is reported as inconclusive: 2.24 µM [activator, partial curve, poor fit]. With `COc1ccc(C2C3=C(CC(C)(C)CC3=O)Nc3nc(C)nn32)cc1OC` (stereo not drawn) the Potency was inconclusive: 2.51 µM [activator, single point]. In the case of `O=C(NC1CC1)c1ccc(NS(=O)(=O)c2ccc(F)cc2)cc1`, the Potency is reported as inconclusive: 6.31 µM [activator, partial curve, poor fit].
